According to patent US12378320B2, “Methods for treating pancreatitis” (Cold Spring Harbor Laboratory, priority 2018, dated 2025):

B1: Q921I9 (protein, UniProt Q921I9 1-245, looked up)
chain: MAGLELLSDQGYRIDGRRAGELRKIQARMGVFAQADGSAYIEQGNTKALAVVYGPHEIRGSRSRALPDRALVNCQYSSATFSTGERKRRPHGDRKSCEMGLQLRQTFEAAILTQLHPRSQIDIYVQVLQADGGTYAACVNAATLAVMDAGIPMRDFVCACSAGFVDGTALADLSHVEEAAGGPQLALALLPASGQIALLEMDSRLHEDHLEQVLEAAAQAARGVHTLLDLVVRQHVQEASVSLGD
modifications: full-length
B2: Q8R317 (protein, UniProt Q8R317 1-582, looked up)
chain: MAESAESGGPPGAQDSAADGGPAEPKIMKVTVKTPKEKEEFAVPENSSVQQFKEEISKRFKSHIDQLVLIFAGKILKDQDTLSQHGIHDGLTVHLVIKTQNRPQDNSAQQTNAPGSTVTSSPAPDSNPTSGSAANSSFGVGGLGGLAGLSSLGLNTTNFSELQSQMQRQLLSNPEMMVQIMENPFVQSMLSNPDLMRQLIMANPQMQQLIQRNPEISHMLNNPDIMRQTLELARNPAMMQEMMRNQDRALSNLESIPGGYNALRRMYTDIQEPMLNAAQEQFGGNPFASLVSSSSSAEGTQPSRTENRDPLPNPWAPQTSQSSPASGTTGSTTNTMSTSGGTATSTPAGQSTSGPSLVPGAGASMFNTPGMQSLLQQITENPQLMQNMLSAPYMRSMLQSLSQNPDLAAQMMLNNPLFAGNPQLQEQMRQQLPTFLQQMQNPDTLSAMSNPRAMQALLQIQQGLQTLATEAPGLIPGFTPGLAAGNSGGSSGTNAPSTAPSEDTNPQGGTAEPGHQQFIQQMLQALAGVNPQLQSPEVRFQQQLEQLSAMGFLNREANLQALIATGGDINAAIERLLGSQPS
modifications: full-length
B3: P27641 (protein, UniProt P27641 1-732, looked up)
chain: MAWSGNKAAVVLCVDVGVAMGNSFPGEESPIEQAKKVMTMFVQRQVFSESKDEIALVLYGTDGTDNALAGKDQYQNITVCRHLMLPDFDLLEDIGNKIQPSSQQADFLDALIVCMDLIQRETIGKKFGKKHIEVFTDLSSPFSQDQLDVIICNLKKSGISLQFFLPFPIDKNGEPGERGDLDSGLDHLKPSFPQKGLTEQQKEGIRMVTRVMLSLEGEDGLDEIYSFSESLRQLCVFKKIERRSMPWPCQLTIGPNLSIKIVAYKSIVQEKFKKSWVVVDARTLKKEDIQKETVYCLNDDDETEVSKEDTIQGYRYGSDIIPFSKVDEEQMKYKSEGKCFSVLGFCKSSQVHRRFFMGHQVLKVFAAKDDEAAAVALSSLVHALDELNMVAIVRYAYDKRSNPQVGVAFPYIKDAYECLVYVQLPFMEDLRQYMFSSLKNNKKCTPTEAQLSAIDDLIDSMSLVKKNEEEDIVEDLFPTSKIPNPEFQRLYQCLLHRALHLQERLPPIQQHILNMLDPPTEMKAKCESPLSKVKTLFPLTEVIKKKNQVTAQDVFQDNHEEGPAAKKYKTEKEEDHISISSLAEGNITKVGSVNPVENFRFLVRQKIASFEEASLQLISHIEQFLDTNETLYFMKSMDCIKAFREEAIQFSEEQRFNSFLEALREKVEIKQLNHFWEIVVQDGVTLITKDEGPGSSITAEEATKFLAPKDKAKEDTTGPEEAGDVDDLLDMI
modifications: full-length
B4: Q9JHU9 (protein, UniProt Q9JHU9 1-557, looked up)
chain: MEPAAEILVDSPDVVYSPETIEARYEYRTTRVSREGGVLRVQPRATRFTFRTARQVPRLGVMLVGWGGNNGSTLTAAVLANRLRLTWPTRTGRKEANYYGSLTQAGTVNLGLDENGREVFVPFSALLPMVAPNDLVFDGWDISSLNLAEAMRRAQVLDCGLQEQLWPHMESLRPRPSVYIPEFIAANQTARADNLIPGTRAQQLEQIRKDIRDFRSSAGLDKVIVLWTANTERFCEVVPGRNDTAENLLHTIQLGLEVSPSTLFAVASILEDCAFLNGSPQNTLVPGALELASQRHVFVGGDDFKSGQTKVKSVLVDFLIGSGLKTMSIVSYNHLGNNDGQNLSAPLQFRSKEVTKSSVVDDMVHSNHVLYAPGERPDHCVVIKYVPYVGDSKRALDEYTSELMLGGTNTLVLHNTCEDSLLAAPIMLDLVLLTELCQRVSFCTDSDPEPQGFHTVLSLLSFLFKAPLVPPGSPVVNALFRQRSCIENIFRACVGLPPQNHMLLEHKMERPGPGIKPGEVVATSPLPCKKEPTPATNGCTGDANGHPQAPTPKLSTA
modifications: full-length
B5: Q8VIJ6 (protein, UniProt Q8VIJ6 1-699, looked up)
chain: MSRDRFRSRGGGGGGFHRRGGGGGRGGLHDFRSPPPGMGLNQNRGPMGPGPGGPKPPLPPPPPHQQQQQPPPQQPPPQQPPPHQQPPPHQPPHQQPPPPPQESKPVVPQGPGSAPGVSSAPPPAVSAPPANPPTTGAPPGPGPTPTPPPAVPSTAPGPPPPSTPSSGVSTTPPQTGGPPPPPAGGAGPGPKPGPGPGGPKGGKMPGGPKPGGGPGMGAPGGHPKPPHRGGGEPRGGRQHHAPYHQQHHQGPPPGGPGPRTEEKISDSEGFKANLSLLRRPGEKTYTQRCRLFVGNLPADITEDEFKRLFAKYGEPGEVFINKGKGFGFIKLESRALAEIAKAELDDTPMRGRQLRVRFATHAAALSVRNLSPYVSNELLEEAFSQFGPIERAVVIVDDRGRSTGKGIVEFASKPAARKAFERCSEGVFLLTTTPRPVIVEPLEQLDDEDGLPEKLAQKNPMYQKERETPPRFAQHGTFEYEYSQRWKSLDEMEKQQREQVEKNMKDAKDKLESEMEDAYHEHQANLLRQDLMRRQEELRRMEELHSQEMQKRKEMQLRQEEERRRREEEMMIRQREMEEQMRRQREESYSRMGYMDPRERDMRMGGGGTMNMGDPYGSGGQKFPPLGGGGGIGYEANPGVPPATMSGSMMGSDMRTERFGQGGAGPVGGQGPRGMGPGTPAGYGRGREEYEGPNKKPRF
modifications: full-length
B6: Q6ZQ38 (protein, UniProt Q6ZQ38 1-1230, looked up)
chain: MASASYHISNLLEKMTSSDKDFRFMATNDLMTELQKDSIKLDDDSERKVVKMILRLLEDKNGEVQNLAVKCLGPLVSKVKEYQVETIVDTLCTNMLSDKEQLRDISSIGLKTVIGELPPASSGSALAANVCKKITGRLTSAIAKQEDVSVQLEALDIMADMLSRQGGLLVNFHPSILTCLLPQLTSPRLAVRKRTIIALGHLVMSCGNIVFVDLIEHLLSELSKNDSMSTTRTYIQCIAAISRQAGHRIGEYLEKIIPLVVKFCNVDDDELREYCIQAFESFVRRCPKEVYPHVSTIINICLKYLTYDPNYNYDDEDEDENAMDADGGDDDDQGSDDEYSDDDDMSWKVRRAAAKCLDAVVSTRHEMLPEFYKTVSPALIARFKEREENVKADVFHAYLSLLKQTRPVQSWLCDPDAMEQGDTPLTMLQSQVPNIVKALHKQMKEKSVKTRQCCFNMLTELVNVLPGALTQHIPVLVPGIIFSLNDKSSSSNLKIDALSCLYVILCNHSPQVFHPHVQALVPPVVACVGDPFYKITSEALLVTQQLVKVIRPLDQPSSFDATPYIKDLFTCTIKRLKAADIDQEVKERAISCMGQIICNLGDNLGPDLSNTLQIFLERLKNEITRLTTVKALTLIAGSPLKIDLRPVLGEGVPILASFLRKNQRALKLGTLSALDILIKNYSDSLTAAMIDAVLDELPPLISESDMHVSQMAISFLTTLAKVYPSSLSKISGSILNELIGLVRSPLLQGGALSAMLDFFQALVVTGTNNLGYMDLLRMLTGPVYSQSTALTHKQSYYSIAKCVAALTRACPKEGPAVVGQFIQDVKNSRSTDSIRLLALLSLGEVGHHIDLSGQLELKSVILEAFSSPSEEVKSAASYALGSISVGNLPEYLPFVLQEITSQPKRQYLLLHSLKEIISSASVAGLKPYVENIWALLLKHCECAEEGTRNVVAECLGKLTLIDPETLLPRLKGYLISGSSYARSSVVTAVKFTISDHPQPIDPLLKNCIGDFLKTLEDPDLNVRRVALVTFNSAAHNKPSLIRDLLDSVLPHLYNETKVRKELIREVEMGPFKHTVDDGLDIRKAAFECMYTLLDSCLDRLDIFEFLNHVEDGLKDHYDIKMLTFLMLVRLSTLCPSAVLQRLDRLVEPLRATCTTKVKANSVKQEFEKQDELKRSAMRAVAALLTIPEAEKSPLMSEFQSQISSNPELAAIFESIQKDSSSTNLESMDTS
modifications: full-length
B7: Q9QWK4 (protein, UniProt Q9QWK4 1-352, looked up)
chain: MAPLFNLMLAILSIFVGSCFSESPTKVQLVGGAHRCEGRVEVEHNGQWGTVCDDGWDRRDVAVVCRELNCGAVIQTPRGASYQPPASEQRVLIQGVDCNGTEDTLAQCELNYDVFDCSHEEDAGAQCENPDSDLLFIPEDVRLVDGPGHCQGRVEVLHQSQWSTVCKAGWNLQVSKVVCRQLGCGRALLTYGSCNKNTQGKGPIWMGKMSCSGQEANLRSCLLSRLENNCTHGEDTWMECEDPFELKLVGGDTPCSGRLEVLHKGSWGSVCDDNWGEKEDQVVCKQLGCGKSLHPSPKTRKIYGPGAGRIWLDDVNCSGKEQSLEFCRHRLWGYHDCTHKEDVEVICTDFDV
modifications: full-length

System: CA19-9 modified proteins
Test: CA19-9 IP/MS (iTRAQ) of organoid conditioned media after Dox treatment
Set-up: species or system mouse
Conditions: A217 organoid conditioned media, 0H, 5B1

Molecule	17 0H 5B1 (CA19-9 IP/MS relative abundance)
B1	1.712
B2	1.305
B3	3.472
B4	1.548
B5	4.604
B6	2.632
B7	0.774

Same assay, conditions: A217 organoid conditioned media, 0H, NS19-9; every printed value in this column is 1

Molecule	17 0H NS19 (CA19-9 IP/MS relative abundance)
B1	1
B2	1
B3	1
B4	1
B5	1
B6	1
B7	1

Same assay, conditions: A217 organoid conditioned media, 8 hours, 5B1

Molecule	17 8H 5B1 (CA19-9 IP/MS relative abundance)
B1	1.445
B2	0.595
B3	3.891
B4	1.629
B5	4.737
B6	2.648
B7	0.455

Same assay, conditions: A217 organoid conditioned media, 8 hours, NS19-9

Molecule	17 8H NS19 (CA19-9 IP/MS relative abundance)
B1	0.62
B2	0.684
B4	0.219
B5	0.874
B6	0.164
B7	0.536

Same assay, conditions: A220 organoid conditioned media, 0H, 5B1

Molecule	20 0H 5B1 (CA19-9 IP/MS relative abundance)
B1	0.996
B2	0.798
B3	3.988
B4	1.283
B5	3.735
B6	1.833
B7	0.67

Same assay, conditions: A220 organoid conditioned media, 0H, NS19-9

Molecule	20 0H NS19 (CA19-9 IP/MS relative abundance)
B1	0.471
B2	0.631
B4	0.08
B5	0.799
B6	0.324
B7	0.655

Same assay, conditions: A220 organoid conditioned media, 8 hours, 5B1

Molecule	20 8H 5B1 (CA19-9 IP/MS relative abundance)
B1	1.83
B2	1.503
B3	5.176
B4	1.42
B5	4.567
B6	2.094
B7	0.55

Same assay, conditions: A220 organoid conditioned media, 8 hours, NS19-9

Molecule	20 8H NS19 (CA19-9 IP/MS relative abundance)
B1	0.54
B2	0.572
B4	0.159
B5	0.654
B6	0.369
B7	0.456
